The other results are listed elsewhere or left out.

Sequences of proteins named here, by UniProt entry; tags and fusion partners are left off. A change or cut given only in a name is not applied to a line headed by its entry.
UniProt P22102: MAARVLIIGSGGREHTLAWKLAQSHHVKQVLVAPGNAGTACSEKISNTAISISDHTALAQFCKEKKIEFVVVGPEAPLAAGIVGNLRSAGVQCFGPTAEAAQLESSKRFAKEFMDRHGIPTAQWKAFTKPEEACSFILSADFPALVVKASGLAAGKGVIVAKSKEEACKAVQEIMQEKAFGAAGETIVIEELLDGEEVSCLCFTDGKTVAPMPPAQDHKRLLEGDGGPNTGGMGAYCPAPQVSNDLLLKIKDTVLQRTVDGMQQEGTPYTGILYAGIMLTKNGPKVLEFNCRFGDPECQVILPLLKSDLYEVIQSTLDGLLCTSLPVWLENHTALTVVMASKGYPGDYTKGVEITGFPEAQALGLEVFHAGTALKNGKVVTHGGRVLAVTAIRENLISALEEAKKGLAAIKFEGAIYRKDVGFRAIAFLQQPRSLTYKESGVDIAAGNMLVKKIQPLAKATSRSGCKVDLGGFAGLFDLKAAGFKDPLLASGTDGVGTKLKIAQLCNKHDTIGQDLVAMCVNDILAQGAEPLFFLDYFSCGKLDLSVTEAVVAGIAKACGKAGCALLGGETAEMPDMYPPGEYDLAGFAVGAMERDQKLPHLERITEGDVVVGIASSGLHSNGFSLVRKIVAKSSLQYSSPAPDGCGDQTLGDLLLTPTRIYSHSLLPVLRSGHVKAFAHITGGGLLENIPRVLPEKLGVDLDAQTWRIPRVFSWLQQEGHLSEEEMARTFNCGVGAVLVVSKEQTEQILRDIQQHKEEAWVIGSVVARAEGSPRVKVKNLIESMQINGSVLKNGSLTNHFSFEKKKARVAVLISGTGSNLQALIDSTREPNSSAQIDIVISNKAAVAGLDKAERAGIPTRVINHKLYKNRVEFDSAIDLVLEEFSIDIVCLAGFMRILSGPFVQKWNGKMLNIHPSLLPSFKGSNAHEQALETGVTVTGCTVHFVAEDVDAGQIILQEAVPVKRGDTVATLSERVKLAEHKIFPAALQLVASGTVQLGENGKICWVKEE
UniProt O14772: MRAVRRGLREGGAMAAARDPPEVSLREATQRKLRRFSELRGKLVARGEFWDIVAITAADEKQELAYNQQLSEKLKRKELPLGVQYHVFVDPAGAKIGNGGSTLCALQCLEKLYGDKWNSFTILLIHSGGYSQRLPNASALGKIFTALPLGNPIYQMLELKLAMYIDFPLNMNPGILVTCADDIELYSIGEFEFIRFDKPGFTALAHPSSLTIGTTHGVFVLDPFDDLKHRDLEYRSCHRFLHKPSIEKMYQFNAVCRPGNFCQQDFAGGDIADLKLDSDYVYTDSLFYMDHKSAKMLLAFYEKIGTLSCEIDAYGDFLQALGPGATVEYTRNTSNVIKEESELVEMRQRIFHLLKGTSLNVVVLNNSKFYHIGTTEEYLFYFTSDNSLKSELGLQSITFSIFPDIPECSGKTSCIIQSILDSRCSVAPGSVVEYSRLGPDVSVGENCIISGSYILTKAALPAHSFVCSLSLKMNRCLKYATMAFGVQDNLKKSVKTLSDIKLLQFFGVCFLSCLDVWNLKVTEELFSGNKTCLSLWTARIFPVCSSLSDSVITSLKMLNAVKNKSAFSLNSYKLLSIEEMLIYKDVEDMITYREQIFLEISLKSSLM
UniProt P06241, whole entry, looked up: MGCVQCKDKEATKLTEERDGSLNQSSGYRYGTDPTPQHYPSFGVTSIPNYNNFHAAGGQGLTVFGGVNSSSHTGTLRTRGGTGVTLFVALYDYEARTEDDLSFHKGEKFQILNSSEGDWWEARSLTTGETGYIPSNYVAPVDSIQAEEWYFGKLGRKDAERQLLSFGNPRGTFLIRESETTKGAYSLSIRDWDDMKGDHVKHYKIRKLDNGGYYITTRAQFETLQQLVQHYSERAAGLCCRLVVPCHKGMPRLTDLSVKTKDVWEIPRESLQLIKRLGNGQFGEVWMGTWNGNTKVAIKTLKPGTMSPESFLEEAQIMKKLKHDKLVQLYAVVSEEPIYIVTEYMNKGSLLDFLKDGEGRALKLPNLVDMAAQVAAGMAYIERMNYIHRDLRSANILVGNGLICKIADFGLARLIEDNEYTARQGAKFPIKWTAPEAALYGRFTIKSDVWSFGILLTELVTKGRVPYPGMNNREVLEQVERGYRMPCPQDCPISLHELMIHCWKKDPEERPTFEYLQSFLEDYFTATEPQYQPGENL
UniProt Q14435: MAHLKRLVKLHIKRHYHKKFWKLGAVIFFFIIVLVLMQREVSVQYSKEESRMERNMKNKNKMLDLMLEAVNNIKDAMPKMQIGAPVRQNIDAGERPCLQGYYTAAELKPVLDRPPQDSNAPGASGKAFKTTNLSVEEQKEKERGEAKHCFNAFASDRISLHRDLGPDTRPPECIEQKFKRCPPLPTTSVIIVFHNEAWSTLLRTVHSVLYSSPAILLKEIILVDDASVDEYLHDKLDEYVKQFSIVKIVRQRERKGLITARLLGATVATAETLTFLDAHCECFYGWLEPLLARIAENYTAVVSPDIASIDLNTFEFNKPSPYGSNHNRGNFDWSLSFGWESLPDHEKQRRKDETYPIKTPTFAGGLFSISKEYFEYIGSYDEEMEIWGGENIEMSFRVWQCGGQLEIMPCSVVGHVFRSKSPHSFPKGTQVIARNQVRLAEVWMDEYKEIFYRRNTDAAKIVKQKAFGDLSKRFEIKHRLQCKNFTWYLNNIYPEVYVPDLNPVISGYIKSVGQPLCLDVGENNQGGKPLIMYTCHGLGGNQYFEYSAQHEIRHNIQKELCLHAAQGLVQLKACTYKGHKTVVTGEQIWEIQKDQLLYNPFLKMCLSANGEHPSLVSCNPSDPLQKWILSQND
UniProt Q8N9F7: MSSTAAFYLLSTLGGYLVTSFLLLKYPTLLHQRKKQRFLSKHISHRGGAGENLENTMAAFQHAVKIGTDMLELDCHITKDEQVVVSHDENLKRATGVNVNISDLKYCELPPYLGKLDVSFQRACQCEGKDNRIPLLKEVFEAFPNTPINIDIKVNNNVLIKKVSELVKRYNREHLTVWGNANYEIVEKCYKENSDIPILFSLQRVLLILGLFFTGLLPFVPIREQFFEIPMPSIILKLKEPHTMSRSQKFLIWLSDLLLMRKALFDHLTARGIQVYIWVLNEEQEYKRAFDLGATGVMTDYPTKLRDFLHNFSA
UniProt Q96CU9: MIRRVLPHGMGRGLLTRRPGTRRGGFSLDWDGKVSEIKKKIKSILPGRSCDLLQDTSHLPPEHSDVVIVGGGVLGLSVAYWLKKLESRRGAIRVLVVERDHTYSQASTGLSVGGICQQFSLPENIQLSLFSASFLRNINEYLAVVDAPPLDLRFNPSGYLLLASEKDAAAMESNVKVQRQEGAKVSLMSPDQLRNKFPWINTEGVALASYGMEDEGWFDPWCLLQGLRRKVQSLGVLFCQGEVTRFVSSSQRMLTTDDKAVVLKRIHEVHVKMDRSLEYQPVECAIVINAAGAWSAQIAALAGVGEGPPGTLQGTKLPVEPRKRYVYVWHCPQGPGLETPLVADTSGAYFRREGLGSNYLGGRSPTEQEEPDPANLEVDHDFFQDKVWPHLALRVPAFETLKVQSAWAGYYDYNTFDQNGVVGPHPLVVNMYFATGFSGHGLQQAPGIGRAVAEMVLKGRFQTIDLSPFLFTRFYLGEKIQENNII
UniProt Q96AE4: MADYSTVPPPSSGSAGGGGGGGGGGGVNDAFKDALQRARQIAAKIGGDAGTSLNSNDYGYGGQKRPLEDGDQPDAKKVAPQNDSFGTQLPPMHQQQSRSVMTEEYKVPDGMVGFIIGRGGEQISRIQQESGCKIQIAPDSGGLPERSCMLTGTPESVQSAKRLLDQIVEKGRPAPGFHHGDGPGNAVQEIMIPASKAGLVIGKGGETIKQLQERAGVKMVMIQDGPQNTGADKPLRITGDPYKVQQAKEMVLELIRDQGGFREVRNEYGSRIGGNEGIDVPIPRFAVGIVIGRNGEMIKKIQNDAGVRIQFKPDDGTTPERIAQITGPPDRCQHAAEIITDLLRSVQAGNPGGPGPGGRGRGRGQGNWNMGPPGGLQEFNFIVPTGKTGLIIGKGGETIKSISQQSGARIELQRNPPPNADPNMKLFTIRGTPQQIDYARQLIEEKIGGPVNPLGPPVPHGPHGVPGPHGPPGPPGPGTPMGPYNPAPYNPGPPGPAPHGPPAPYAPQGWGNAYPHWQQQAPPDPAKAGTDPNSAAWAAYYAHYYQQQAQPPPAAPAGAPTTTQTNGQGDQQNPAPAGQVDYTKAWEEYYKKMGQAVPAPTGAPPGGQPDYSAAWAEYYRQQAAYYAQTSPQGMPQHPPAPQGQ
UniProt P11413, whole entry, looked up: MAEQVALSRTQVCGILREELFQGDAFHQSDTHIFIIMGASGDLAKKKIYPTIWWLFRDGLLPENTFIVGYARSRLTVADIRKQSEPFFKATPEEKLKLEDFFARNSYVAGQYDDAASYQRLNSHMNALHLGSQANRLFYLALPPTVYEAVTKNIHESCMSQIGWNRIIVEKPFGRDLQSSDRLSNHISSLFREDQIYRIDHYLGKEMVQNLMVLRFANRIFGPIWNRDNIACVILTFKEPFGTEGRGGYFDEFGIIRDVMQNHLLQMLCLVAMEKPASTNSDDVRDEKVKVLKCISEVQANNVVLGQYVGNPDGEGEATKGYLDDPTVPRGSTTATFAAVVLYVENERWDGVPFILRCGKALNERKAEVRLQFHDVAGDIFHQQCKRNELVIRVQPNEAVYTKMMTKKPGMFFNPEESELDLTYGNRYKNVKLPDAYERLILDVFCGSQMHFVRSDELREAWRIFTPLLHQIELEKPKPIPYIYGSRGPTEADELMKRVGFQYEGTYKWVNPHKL
UniProt Q9BQS8: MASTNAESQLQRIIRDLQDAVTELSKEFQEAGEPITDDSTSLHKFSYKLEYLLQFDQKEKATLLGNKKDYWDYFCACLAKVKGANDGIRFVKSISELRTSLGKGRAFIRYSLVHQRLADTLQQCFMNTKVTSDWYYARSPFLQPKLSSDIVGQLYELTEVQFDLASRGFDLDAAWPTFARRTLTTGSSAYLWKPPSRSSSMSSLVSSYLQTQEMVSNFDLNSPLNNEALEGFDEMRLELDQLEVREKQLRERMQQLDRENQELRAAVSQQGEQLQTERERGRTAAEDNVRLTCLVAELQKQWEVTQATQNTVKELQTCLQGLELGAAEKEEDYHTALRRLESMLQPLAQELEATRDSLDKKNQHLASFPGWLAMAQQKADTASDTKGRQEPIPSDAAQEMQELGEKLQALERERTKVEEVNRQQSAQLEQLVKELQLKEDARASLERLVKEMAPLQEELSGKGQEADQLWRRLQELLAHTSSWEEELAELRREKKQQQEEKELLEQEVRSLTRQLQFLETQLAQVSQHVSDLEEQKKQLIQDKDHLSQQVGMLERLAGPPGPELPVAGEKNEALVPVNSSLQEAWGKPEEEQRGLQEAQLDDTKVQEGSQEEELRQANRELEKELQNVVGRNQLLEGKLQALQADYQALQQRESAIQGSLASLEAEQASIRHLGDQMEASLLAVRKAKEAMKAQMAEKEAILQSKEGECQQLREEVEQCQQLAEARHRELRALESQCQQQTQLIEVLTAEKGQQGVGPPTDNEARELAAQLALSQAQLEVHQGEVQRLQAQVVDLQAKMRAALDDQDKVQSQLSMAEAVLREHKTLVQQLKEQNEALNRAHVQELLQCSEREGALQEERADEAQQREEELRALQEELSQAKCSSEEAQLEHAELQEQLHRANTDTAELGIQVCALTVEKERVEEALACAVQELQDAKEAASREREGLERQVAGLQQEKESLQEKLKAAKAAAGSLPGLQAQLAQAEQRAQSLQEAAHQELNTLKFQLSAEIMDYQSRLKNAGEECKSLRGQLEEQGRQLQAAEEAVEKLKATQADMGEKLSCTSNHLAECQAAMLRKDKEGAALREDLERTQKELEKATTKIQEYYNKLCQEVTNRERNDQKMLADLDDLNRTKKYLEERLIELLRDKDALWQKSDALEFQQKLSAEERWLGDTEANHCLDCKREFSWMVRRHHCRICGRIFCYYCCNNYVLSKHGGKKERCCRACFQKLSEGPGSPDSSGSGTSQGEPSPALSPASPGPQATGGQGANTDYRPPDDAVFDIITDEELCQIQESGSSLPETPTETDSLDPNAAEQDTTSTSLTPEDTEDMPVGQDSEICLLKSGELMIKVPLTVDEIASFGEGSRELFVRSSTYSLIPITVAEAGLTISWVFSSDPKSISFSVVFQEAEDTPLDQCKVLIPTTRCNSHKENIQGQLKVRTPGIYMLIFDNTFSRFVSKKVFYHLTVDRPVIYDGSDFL
UniProt P48507: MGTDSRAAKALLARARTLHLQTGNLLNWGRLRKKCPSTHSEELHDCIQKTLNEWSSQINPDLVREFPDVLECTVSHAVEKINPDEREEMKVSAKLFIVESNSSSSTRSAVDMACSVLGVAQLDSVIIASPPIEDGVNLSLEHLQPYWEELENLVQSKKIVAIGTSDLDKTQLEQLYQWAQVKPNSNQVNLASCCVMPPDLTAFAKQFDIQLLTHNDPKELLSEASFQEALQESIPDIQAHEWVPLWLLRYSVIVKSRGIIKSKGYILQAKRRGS

Compound in this experiment: C1=CC=C(C=C1)[C@H](COC2=CC3=C(C=C2)NC(=O)N3)NC(=O)C4=CC=CN(C4=O)CC5=CC(=C(C=C5)F)F
The experiment is described as follows: log2 fold change, soluble protein after heating vs DMSO (PISA); higher = thermal stabilisation; K562 lysate, 10 uM; active = over 0.2 and 3.5 SD of the protein, either way, in both replicates (recomputed). Put shortly: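 Thermal stability, expressed as log-two fold change relative to solvent controls, is given from duplicates. Crude K562 extract in PBS pH 7.4 with 1 mM MgCl2, at 1 mg/mL protein, was treated with 10 μM compound for 30 min and heated in aliquots for 3 min across 48°C-58°C. After pooling, adjustment to 0.5% NP-40 at 4°C and centrifugation at 21,000xg for 90 min, supernatant protein was measured by TMTpro 16plex LC-MS/MS with channel sums equalised.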
Take GFM1 (UniProt Q96RP9): the log2 fold change was inactive: -0.013.
With GART (UniProt P22102), the log2 fold change is inactive: -0.04.
The figure for FYB1 isoform 3 (UniProt O15117) is inactive: 0.011.
For the target FPGT (UniProt O14772), the log2 fold change is inactive: 0.007.
Consider FTSJ3 (UniProt Q8IY81), for which the log2 fold change was inactive: 0.022.
Under GAR1 (UniProt Q9NY12) stands inactive: 0.017; under FYN (UniProt P06241), inactive: -0.323.
Under GALNT3 (UniProt Q14435) stands inactive: 0.07; under FUNDC2 (UniProt Q9BWH2), inactive: 0.01; under GDPD1 (UniProt Q8N9F7), inactive: -0.047.
As for GADD45GIP1 (UniProt Q8TAE8), the log2 fold change is inactive: 0.081.
On to FOXRED1 (UniProt Q96CU9), for which the log2 fold change was inactive: 0.009.
Take GBF1 (UniProt Q92538): the log2 fold change was inactive: -0.044.
For the target GAPVD1 (UniProt Q14C86), the log2 fold change is inactive: 0.036.
The figure for FUNDC2 (UniProt H7C0K8) is inactive: -0.454; for GAB1 isoform 2 (UniProt Q13480) it is inactive: 0.028; for FOXP1 (UniProt Q9H334) it is inactive: 0.045.
In the case of FUBP1 isoform 2 (UniProt Q96AE4), the log2 fold change is inactive: 0.035.
Regarding G6PD isoform 2 (UniProt P11413), the log2 fold change was inactive: 0.023.
Regarding FURIN (UniProt P09958), the log2 fold change is inactive: 0.017.
Regarding FYCO1 isoform 4 (UniProt Q9BQS8), the log2 fold change is inactive: 0.01.
The figure for GCLM (UniProt P48507) is inactive: 0.01; for GAGE1 (UniProt Q13065) it is inactive: -0.073.

These data come from the supplement of paper PMC10849652.
